These are yes or no findings as the source states them, for the method shown. Binding seen in cells or lysates may run through a third protein. Some binding calls cover weakened binding; strength is not graded here. For part of these data: Sequences can lack the tags named with a protein.
T1: MEX-3 RNA binding family member A (MEX3A) (human) (UniProt A1L020)
T1 sequence: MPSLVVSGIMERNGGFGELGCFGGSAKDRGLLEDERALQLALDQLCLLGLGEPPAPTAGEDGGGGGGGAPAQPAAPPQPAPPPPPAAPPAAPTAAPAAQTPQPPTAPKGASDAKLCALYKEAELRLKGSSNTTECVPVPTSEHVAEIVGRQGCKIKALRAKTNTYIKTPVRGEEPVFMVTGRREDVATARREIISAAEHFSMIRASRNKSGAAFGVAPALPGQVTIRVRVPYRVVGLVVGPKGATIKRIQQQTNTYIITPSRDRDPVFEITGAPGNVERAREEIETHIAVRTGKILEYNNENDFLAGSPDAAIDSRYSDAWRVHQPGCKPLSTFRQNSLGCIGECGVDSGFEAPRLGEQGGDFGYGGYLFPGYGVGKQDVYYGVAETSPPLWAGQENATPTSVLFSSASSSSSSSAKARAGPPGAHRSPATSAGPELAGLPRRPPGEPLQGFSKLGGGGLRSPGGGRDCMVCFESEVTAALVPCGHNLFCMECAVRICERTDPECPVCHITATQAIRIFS

Amino acid sequences for entries named in this document (tags omitted).
UniProt P11940: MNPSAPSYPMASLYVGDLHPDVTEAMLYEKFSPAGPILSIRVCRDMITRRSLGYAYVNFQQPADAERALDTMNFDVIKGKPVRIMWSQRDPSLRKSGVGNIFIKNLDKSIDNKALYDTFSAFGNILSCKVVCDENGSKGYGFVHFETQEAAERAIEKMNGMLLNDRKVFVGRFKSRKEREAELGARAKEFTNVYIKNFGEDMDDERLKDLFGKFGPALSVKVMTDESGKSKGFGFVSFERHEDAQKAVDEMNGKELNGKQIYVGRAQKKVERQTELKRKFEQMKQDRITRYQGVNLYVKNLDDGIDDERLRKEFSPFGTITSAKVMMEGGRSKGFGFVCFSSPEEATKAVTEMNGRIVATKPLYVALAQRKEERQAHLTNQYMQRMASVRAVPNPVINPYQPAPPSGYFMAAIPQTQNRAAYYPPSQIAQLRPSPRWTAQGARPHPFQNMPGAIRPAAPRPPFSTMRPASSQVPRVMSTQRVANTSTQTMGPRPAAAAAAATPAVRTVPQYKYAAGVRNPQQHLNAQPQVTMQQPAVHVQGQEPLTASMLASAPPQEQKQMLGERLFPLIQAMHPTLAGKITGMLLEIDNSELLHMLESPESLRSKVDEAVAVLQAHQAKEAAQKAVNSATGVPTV

T2: Flag-MEX3A (human) (UniProt A1L020)
T2 sequence: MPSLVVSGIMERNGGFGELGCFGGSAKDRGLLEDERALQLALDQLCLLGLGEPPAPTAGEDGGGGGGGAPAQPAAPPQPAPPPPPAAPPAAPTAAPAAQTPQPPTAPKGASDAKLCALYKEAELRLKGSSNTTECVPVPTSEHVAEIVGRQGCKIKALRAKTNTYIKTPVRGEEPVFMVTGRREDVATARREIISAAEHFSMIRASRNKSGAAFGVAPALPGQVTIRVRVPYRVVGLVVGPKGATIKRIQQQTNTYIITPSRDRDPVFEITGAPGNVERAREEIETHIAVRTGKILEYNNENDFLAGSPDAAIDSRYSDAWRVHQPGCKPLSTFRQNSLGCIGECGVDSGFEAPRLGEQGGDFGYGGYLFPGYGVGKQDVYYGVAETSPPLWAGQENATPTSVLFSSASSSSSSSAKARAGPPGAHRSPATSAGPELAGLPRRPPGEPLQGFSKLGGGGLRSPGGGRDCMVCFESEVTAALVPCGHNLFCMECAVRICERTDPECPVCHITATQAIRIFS


Tests used:
[1] = target: T1, MEX-3 RNA binding family member A (MEX3A) (human); assay: co-sedimentation; whole-cell lysate of circMPP6-knockdown DLD-1 cells on a linear 5-30% (w/v) sucrose gradient, 12 h at 4 °C, 36,000 rpm, ten fractions, Western blotting
Flag-MEX3A (human) = target: T2, Flag-MEX3A (human); assay: co-IP; Flag-IP of Flag-MEX3A and its KH-domain truncations from DLD-1 cells, Western blotting
[2] = target: T1, MEX-3 RNA binding family member A (MEX3A) (human); assay: co-sedimentation; whole-cell lysate of control DLD-1 cells on a linear 5-30% (w/v) sucrose gradient, 12 h at 4 °C, 36,000 rpm, ten fractions, Western blotting
[3] = target: T1, MEX-3 RNA binding family member A (MEX3A) (human); assay: co-IP; MEX3A-IP from 293T and CRC (DLD-1) cell lysates, Western blotting; also in control and circMPP6-knockdown CRC cells (knock-down decreased the co-precipitated proteins)

Row | Molecule | binding [1] | binding (Flag-MEX3A (human)) | binding [2] | binding [3]
1 | PABP1 (from UniProt P11940 1-636) | binds weakly | binds | binds | binds
2 | MOV10 (protein, UniProt Q9HCE1 1-1003) MPSKFSCRQLREAGQCFESFLVVRGLDMETDRERLRTIYNRDFKISFGTPAPGFSSMLYGMKIANLAYVTKTRVRFFRLDRWADVRFPEKRRMKLGSDISKHHKSLLAKIFYDRAEYLHGKHGVDVEVQGPHEARDGQLLIRLDLNRKEVLTLRLRNGGTQSVTLTHLFPLCRTPQFAFYNEDQELPCPLGPGECYELHVHCKTSFVGYFPATVLWELLGPGESGSEGAGTFYIARFLAAVAHSPLAAQLKPMTPFKRTRITGNPVVTNRIEEGERPDRAKGYDLELSMALGTYYPPPRLRQLLPMLLQGTSIFTAPKEIAEIKAQLETALKWRNYEVKLRLLLHLEELQMEHDIRHYDLESVPMTWDPVDQNPRLLTLEVPGVTESRPSVLRGDHLFALLSSETHQEDPITYKGFVHKVELDRVKLSFSMSLLSRFVDGLTFKVNFTFNRQPLRVQHRALELTGRWLLWPMLFPVAPRDVPLLPSDVKLKLYDRSLESNPEQLQAMRHIVTGTTRPAPYIIFGPPGTGKTVTLVEAIKQVVKHLPKAHILACAPSNSGADLLCQRLRVHLPSSIYRLLAPSRDIRMVPEDIKPCCNWDAKKGEYVFPAKKKLQEYRVLITTLITAGRLVSAQFPIDHFTHIFIDEAGHCMEPESLVAIAGLMEVKETGDPGGQLVLAGDPRQLGPVLRSPLTQKHGLGYSLLERLLTYNSLYKKGPDGYDPQFITKLLRNYRSHPTILDIPNQLYYEGELQACADVVDRERFCRWAGLPRQGFPIIFHGVMGKDEREGNSPSFFNPEEAATVTSYLKLLLAPSSKKGKARLSPRSVGVISPYRKQVEKIRYCITKLDRELRGLDDIKDLKVGSVEEFQGQERSVILISTVRSSQSFVQLDLDFNLGFLKNPKRFNVAVTRAKALLIIVGNPLLLGHDPDWKVFLEFCKENGGYTGCPFPAKLDLQQGQNLLQGLSKLSPSTSGPHSHDYLPQEREGEGGLSLQVEPEWRNEL | binds weakly | binds | binds | binds
3 | UPF1 (protein, UniProt Q92900 1-1129) MSVEAYGPSSQTLTFLDTEEAELLGADTQGSEFEFTDFTLPSQTQTPPGGPGGPGGGGAGGPGGAGAGAAAGQLDAQVGPEGILQNGAVDDSVAKTSQLLAELNFEEDEEDTYYTKDLPIHACSYCGIHDPACVVYCNTSKKWFCNGRGNTSGSHIVNHLVRAKCKEVTLHKDGPLGETVLECYNCGCRNVFLLGFIPAKADSVVVLLCRQPCASQSSLKDINWDSSQWQPLIQDRCFLSWLVKIPSEQEQLRARQITAQQINKLEELWKENPSATLEDLEKPGVDEEPQHVLLRYEDAYQYQNIFGPLVKLEADYDKKLKESQTQDNITVRWDLGLNKKRIAYFTLPKTDSGNEDLVIIWLRDMRLMQGDEICLRYKGDLAPLWKGIGHVIKVPDNYGDEIAIELRSSVGAPVEVTHNFQVDFVWKSTSFDRMQSALKTFAVDETSVSGYIYHKLLGHEVEDVIIKCQLPKRFTAQGLPDLNHSQVYAVKTVLQRPLSLIQGPPGTGKTVTSATIVYHLARQGNGPVLVCAPSNIAVDQLTEKIHQTGLKVVRLCAKSREAIDSPVSFLALHNQIRNMDSMPELQKLQQLKDETGELSSADEKRYRALKRTAERELLMNADVICCTCVGAGDPRLAKMQFRSILIDESTQATEPECMVPVVLGAKQLILVGDHCQLGPVVMCKKAAKAGLSQSLFERLVVLGIRPIRLQVQYRMHPALSAFPSNIFYEGSLQNGVTAADRVKKGFDFQWPQPDKPMFFYVTQGQEEIASSGTSYLNRTEAANVEKITTKLLKAGAKPDQIGIITPYEGQRSYLVQYMQFSGSLHTKLYQEVEIASVDAFQGREKDFIILSCVRANEHQGIGFLNDPRRLNVALTRARYGVIIVGNPKALSKQPLWNHLLNYYKEQKVLVEGPLNNLRESLMQFSKPRKLVNTINPGARFMTTAMYDAREAIIPGSVYDRSSQGRPSSMYFQTHDQIGMISAGPSHVAAMNIPIPFNLVMPPMPPPGYFGQANGPAAGRGTPKGKTGRGGRQKNRFGLPGPSQTNLPNSQASQDVASQPFSQGALTQGYISMSQPSQMSQPGLSQPELSQDSYLGDEFKSQIDVALSQDSTYQGERAYQHGGVTGLSQY | binds weakly | binds | binds | binds

Source: PMC10987644
